Results published in patent publication US20220073532A1, “INHIBITORS OF CGAS ACTIVITY AS THERAPEUTIC AGENTS” (BELLBROOK LABS, LLC, priority 2019, published 2022).
Some results were stated once for a whole list of compounds, not compound by compound.

The chains behind the UniProt entries cited, without tags or fusion partners.
UniProt Q8N884, whole entry: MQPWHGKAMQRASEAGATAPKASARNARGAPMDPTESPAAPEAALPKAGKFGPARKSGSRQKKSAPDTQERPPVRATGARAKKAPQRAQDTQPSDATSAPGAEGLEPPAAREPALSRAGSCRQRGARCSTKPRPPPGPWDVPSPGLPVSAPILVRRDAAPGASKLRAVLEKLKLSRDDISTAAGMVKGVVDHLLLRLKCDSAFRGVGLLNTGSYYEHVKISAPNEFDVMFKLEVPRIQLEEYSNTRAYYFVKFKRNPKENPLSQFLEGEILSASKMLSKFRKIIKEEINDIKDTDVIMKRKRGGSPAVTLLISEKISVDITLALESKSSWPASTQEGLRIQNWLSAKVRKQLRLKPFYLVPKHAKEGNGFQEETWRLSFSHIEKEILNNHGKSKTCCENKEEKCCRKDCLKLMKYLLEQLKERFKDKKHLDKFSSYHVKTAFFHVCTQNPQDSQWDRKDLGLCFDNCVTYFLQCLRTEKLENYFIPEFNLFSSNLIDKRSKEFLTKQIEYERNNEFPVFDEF

Target: cGAS (Homo sapiens, UniProt Q8N884)
Experiment: cGAS enzymatic assay (FP/TR-FRET detection of cGAMP)
Assay type: biochemical
Parameters: The cGAS assay was used to screen 100,000 compounds with full-length human cGAS; 6xHis; made in house
Conditions: Mn^2+ at physiological concentration (200 μM) vs none
Description: Some exemplary compounds of the disclosure were tested for inhibition of cGAS (30 nM). The results are provided in Table 1 where “A” indicates an IC50 of less than 100 nM, “B” indicates an IC50 of greater than 100 nM and less than 500 nM, “C” indicates an IC50 of greater than 500 nM and less than 1 μM, “D” indicates an IC50 of greater than 1 μM and less than 10 μM, and “E” indicates an IC50 of greater than 10 μM.
A homogenous cGAS enzymatic assay was developed with fluorescence polarization (FP) and time-resolved Forster resonance energy transfer (TR-FRET) readouts (FIG. 2A-2D). The cGAS assay was used to screen 100,000 compounds with full-length human cGAS (FIG. 2E), resulting in the identification of the novel chemotype of the disclosure, two of which are further developed in a structure-driven hit-to-lead study (Table 3, below). […]
Biochemical and biophysical analysis: Potency and MOA studies, including Mn^2+ sensitivity, are performed using the cGAS enzymatic assay. […] Competition with ATP and GTP is assessed by comparing basal IC50 values to those in the presence of saturating ATP or GTP, and subsequently confirmed by measuring velocity vs. substrate at varying ATP or GTP levels. […]

CCN(CC)CCCC(C)Nc1c2ccc(Cl)cc2nc2ccc(OC)cc12 (stereo not shown) [quinacrine, reference compound]
IC50 shift when Mn^2+ is present: ≤ 100 fold
